Test results as given in the supplement of paper PMC7666118.
The list shows a part of the results.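 Rule for the calls: active = dose-dependent thermal stabilisation significant by F-test of dose-response against flat model at 10% FDR; inactive = not significant.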

The chains behind the UniProt entries cited, without tags or fusion partners. Where a name states a change or a piece, a line headed by the entry shows the natural chain unless it says otherwise.
UniProt Q9UHQ1: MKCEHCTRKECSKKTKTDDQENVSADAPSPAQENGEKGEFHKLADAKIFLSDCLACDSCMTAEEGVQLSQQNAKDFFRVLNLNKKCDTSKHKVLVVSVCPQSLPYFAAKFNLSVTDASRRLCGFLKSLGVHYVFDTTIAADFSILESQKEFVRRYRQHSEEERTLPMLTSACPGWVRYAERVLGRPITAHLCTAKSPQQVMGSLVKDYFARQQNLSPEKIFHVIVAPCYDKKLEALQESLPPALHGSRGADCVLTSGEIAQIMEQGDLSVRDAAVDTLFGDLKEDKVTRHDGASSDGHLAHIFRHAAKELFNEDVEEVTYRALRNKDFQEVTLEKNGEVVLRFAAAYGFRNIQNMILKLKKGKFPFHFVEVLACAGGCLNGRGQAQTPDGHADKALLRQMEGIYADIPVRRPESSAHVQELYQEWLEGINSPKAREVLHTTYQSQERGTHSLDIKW
UniProt Q9NWQ8: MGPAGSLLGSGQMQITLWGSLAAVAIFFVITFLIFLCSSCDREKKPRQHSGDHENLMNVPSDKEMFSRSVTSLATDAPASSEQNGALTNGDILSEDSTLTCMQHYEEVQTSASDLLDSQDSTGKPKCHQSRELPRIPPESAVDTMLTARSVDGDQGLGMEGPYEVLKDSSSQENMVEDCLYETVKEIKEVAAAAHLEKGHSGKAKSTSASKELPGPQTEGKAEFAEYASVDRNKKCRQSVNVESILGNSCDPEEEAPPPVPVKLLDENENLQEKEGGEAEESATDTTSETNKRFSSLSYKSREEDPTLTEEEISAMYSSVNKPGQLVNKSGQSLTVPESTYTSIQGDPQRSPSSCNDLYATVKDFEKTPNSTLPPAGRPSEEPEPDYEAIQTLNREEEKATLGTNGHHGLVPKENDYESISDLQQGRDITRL
UniProt P35658: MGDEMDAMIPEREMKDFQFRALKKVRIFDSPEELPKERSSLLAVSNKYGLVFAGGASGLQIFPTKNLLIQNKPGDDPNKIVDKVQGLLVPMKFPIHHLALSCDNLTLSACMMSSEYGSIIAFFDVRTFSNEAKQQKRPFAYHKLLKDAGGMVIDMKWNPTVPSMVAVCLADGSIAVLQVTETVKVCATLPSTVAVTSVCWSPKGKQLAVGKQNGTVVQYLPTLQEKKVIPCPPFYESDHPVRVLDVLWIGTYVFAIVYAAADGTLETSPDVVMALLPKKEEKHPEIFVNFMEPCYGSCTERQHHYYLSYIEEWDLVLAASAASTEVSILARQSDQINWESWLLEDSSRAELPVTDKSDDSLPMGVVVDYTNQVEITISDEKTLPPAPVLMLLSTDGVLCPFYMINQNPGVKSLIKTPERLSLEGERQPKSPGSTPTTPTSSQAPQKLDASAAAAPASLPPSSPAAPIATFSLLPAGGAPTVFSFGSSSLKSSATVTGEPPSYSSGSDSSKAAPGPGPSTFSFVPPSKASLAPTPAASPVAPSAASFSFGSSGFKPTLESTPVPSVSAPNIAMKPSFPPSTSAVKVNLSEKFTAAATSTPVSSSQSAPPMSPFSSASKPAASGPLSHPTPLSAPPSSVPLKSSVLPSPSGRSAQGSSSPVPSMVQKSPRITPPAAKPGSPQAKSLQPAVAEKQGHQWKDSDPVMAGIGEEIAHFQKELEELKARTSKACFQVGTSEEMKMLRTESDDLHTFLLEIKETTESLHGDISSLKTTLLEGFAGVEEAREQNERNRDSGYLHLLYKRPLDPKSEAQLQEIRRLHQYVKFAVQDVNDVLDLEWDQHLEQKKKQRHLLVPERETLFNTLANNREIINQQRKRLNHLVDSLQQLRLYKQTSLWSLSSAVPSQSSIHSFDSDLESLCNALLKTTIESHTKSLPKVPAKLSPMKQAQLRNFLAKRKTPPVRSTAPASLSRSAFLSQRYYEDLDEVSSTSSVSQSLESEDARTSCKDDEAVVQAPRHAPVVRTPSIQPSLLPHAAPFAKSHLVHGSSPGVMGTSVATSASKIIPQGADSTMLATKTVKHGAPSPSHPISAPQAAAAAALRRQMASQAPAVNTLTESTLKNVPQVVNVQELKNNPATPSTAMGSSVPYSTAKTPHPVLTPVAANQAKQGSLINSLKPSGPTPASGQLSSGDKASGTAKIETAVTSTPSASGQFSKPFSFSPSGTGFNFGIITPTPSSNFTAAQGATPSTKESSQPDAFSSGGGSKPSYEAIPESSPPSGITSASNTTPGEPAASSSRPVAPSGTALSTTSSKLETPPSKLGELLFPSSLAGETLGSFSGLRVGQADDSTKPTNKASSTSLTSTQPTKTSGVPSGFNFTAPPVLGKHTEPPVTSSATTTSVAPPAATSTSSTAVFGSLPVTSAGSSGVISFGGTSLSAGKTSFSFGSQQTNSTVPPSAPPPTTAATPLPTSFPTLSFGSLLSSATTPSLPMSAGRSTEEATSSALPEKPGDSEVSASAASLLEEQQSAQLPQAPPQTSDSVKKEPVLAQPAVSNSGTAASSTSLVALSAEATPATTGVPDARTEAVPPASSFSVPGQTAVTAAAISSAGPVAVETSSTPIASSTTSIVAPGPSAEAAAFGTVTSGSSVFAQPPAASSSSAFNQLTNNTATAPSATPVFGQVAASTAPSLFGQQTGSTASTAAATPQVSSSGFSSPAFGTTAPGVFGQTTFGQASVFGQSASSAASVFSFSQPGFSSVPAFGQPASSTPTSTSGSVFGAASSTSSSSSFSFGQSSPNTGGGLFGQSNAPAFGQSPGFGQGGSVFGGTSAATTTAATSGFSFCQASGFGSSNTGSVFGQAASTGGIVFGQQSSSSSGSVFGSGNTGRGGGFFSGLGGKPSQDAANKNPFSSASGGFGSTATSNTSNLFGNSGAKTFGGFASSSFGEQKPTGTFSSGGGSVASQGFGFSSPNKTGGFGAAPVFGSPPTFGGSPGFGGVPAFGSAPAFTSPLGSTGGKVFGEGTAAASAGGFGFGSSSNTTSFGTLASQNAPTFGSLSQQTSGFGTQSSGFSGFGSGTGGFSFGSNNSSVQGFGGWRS
UniProt Q4G0N4: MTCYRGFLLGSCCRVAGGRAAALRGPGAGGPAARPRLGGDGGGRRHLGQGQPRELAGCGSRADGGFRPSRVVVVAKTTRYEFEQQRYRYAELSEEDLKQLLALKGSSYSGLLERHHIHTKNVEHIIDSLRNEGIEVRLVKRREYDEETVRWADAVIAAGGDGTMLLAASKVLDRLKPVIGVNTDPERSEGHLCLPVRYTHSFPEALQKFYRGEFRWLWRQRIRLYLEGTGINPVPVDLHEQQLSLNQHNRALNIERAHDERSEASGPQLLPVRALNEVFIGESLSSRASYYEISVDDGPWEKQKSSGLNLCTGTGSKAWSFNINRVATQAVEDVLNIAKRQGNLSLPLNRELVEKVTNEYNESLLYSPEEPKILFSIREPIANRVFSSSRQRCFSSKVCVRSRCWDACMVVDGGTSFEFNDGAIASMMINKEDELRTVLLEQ
UniProt Q96G61: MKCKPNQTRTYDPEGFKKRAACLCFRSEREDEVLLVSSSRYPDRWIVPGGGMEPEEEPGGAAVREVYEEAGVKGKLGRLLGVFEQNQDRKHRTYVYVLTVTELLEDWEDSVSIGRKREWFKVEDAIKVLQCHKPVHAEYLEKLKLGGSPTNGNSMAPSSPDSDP
UniProt Q96RS6: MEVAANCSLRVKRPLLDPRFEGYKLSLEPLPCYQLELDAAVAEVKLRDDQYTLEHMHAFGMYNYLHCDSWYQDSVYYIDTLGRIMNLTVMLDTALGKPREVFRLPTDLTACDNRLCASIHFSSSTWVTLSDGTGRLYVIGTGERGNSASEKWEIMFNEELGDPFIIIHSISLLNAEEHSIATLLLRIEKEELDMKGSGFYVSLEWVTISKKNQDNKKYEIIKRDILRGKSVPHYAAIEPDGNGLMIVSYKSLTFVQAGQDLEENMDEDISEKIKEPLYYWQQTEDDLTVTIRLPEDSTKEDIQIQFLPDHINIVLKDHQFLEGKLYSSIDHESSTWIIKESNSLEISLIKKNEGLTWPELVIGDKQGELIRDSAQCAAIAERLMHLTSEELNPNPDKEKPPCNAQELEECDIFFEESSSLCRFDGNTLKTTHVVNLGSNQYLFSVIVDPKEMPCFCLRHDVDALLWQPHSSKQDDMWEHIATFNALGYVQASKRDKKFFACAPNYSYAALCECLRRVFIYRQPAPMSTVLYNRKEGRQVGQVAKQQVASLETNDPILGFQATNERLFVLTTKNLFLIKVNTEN
UniProt Q9NPE3: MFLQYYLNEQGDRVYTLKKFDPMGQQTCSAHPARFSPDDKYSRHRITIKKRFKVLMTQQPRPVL
UniProt Q9BW27: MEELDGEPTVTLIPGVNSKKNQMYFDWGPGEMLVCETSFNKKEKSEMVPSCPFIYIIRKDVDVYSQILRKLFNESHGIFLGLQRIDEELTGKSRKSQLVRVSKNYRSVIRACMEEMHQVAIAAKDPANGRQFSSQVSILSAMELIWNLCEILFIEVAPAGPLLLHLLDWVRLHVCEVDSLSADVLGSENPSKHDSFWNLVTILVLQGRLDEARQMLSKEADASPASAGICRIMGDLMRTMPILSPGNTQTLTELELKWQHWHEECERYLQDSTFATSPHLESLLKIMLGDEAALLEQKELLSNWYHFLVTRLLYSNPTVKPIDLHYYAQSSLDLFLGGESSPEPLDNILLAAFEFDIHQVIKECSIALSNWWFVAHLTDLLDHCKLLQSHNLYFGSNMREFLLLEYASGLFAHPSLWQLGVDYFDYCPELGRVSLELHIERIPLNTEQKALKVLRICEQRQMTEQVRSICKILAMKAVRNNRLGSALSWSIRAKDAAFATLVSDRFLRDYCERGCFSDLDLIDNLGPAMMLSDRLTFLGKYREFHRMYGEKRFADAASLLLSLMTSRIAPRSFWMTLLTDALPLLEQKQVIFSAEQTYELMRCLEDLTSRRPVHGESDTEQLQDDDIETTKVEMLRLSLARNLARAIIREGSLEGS
UniProt P22392, whole entry: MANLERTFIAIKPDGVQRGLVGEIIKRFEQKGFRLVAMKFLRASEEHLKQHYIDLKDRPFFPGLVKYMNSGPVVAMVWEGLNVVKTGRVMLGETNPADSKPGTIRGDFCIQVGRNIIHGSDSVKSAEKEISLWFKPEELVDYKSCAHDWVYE
UniProt Q09161: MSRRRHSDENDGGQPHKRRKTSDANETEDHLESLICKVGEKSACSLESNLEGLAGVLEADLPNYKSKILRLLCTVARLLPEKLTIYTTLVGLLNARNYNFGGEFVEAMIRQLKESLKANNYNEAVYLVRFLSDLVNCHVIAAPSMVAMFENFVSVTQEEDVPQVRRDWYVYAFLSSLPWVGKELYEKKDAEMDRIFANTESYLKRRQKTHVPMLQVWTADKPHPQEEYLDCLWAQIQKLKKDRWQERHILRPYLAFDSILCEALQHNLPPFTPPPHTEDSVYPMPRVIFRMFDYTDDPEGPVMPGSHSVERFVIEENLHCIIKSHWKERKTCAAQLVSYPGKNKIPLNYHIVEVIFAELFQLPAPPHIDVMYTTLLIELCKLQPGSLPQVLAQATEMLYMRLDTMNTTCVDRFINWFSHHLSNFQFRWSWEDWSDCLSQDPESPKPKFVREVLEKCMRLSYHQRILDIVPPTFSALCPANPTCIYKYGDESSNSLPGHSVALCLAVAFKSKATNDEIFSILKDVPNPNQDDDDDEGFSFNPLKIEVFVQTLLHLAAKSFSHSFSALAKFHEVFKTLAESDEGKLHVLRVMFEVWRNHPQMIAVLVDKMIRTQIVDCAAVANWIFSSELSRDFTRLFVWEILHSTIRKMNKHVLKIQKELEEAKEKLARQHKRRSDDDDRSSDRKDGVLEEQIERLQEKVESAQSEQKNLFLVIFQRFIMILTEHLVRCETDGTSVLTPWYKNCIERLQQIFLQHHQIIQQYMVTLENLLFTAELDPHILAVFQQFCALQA
UniProt Q86TB9: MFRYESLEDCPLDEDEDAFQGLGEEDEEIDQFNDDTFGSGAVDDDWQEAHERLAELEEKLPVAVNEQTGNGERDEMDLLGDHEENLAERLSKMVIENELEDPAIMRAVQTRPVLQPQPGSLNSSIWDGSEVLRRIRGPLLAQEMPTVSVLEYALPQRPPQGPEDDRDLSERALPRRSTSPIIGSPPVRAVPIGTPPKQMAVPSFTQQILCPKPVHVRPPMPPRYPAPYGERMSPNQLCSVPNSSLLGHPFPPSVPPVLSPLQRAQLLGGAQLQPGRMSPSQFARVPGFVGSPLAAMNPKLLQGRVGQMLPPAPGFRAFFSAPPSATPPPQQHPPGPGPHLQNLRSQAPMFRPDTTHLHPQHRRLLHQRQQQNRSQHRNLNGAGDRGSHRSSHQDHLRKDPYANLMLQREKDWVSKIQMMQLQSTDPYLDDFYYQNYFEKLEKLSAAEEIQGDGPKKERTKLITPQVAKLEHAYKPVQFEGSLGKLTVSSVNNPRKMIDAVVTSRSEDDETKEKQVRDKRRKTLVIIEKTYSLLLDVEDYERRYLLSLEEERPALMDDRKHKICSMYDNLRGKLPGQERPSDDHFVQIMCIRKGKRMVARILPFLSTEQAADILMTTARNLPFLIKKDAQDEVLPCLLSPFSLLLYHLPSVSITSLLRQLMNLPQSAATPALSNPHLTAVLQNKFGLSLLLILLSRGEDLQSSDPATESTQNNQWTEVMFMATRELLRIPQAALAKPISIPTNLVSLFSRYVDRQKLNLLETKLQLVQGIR

Compound: Nc1nc2c(ncn2[C@@H]2O[C@H](COP(=O)(O)OP(=O)(O)OP(=O)(O)O)[C@@H](O)[C@H]2O)c(=O)[nH]1
Assay: dose-dependent thermal stabilisation call (2D-TPP, DLPTP, 10% FDR) (binary (1 = stabilised)); higher = stabilised by the compound
Details: system: Jurkat gel-filtered lysate; concentration range 1-500 µM
Experimental: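 2D thermal proteome profiling in gel-filtered Jurkat E6.1 lysate (2 mg/ml) treated with NaGTP (0, 1, 10, 100, 500 uM) for 10 min at room temperature, then heated 3 min at one of 12 temperatures (42-63.9 C). Soluble protein was quantified by TMT10 MS. The value is the DLPTP call of the paper: dose-dependent thermal stabilisation over all temperatures at 10% FDR (F-test of a dose-response against a flat model); one experiment, one call per tested protein.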

Target | dose-dependent thermal stabilisation call
NANP (UniProt Q8TBE9) | inactive: 0
NKAP (UniProt Q8N5F7) | inactive: 0
PAK1 (UniProt Q13153) | inactive: 0
NAAA (UniProt Q02083) | inactive: 0
NT5DC2 (UniProt Q9H857) | inactive: 0
NARF (UniProt Q9UHQ1) | active: 1
OXCT1 (UniProt P55809) | inactive: 0
PAG1 (UniProt Q9NWQ8) | inactive: 0
PARP1 (UniProt P09874) | inactive: 0
OSBP (UniProt P22059) | active: 1
NACA (UniProt E9PAV3) | inactive: 0
NASP (UniProt P49321) | inactive: 0
NUP214 (UniProt P35658) | inactive: 0
NSMAF (UniProt Q92636) | inactive: 0
PALB2 (UniProt Q86YC2) | inactive: 0
NFIC (UniProt P08651) | inactive: 0
NADK2 (UniProt Q4G0N4) | active: 1
NDUFV3 (UniProt P56181) | inactive: 0
NPM3 (UniProt O75607) | inactive: 0
NME7 (UniProt Q9Y5B8) | inactive: 0

Target | dose-dependent thermal stabilisation call
PARN (UniProt O95453) | inactive: 0
NUDT11 (UniProt Q96G61) | inactive: 0
PARD6B (UniProt Q9BYG5) | active: 1
NUDCD1 (UniProt Q96RS6) | inactive: 0
PARP12 (UniProt Q9H0J9) | inactive: 0
NUP93 (UniProt Q8N1F7) | inactive: 0
PASK (UniProt Q96RG2) | inactive: 0
NOP10 (UniProt Q9NPE3) | inactive: 0
PARK7 (UniProt Q99497) | inactive: 0
NUP85 (UniProt Q9BW27) | inactive: 0
NOSIP (UniProt Q9Y314) | inactive: 0
NUDCD3 (UniProt Q8IVD9) | inactive: 0
NME2 (UniProt P22392) | inactive: 0
NIF3L1 (UniProt Q9GZT8) | inactive: 0
NCAPH2 (UniProt Q6IBW4) | active: 1
NUP160 (UniProt Q12769) | active: 1
NUCKS1 (UniProt Q9H1E3) | inactive: 0
NCBP1 (UniProt Q09161) | active: 1
NSUN2 (UniProt Q08J23) | active: 1
PATL1 (UniProt Q86TB9) | active: 1

Given field by field: part of the list above.
PARD6B (UniProt Q9BYG5)
  dose-dependent thermal stabilisation call: active: 1
NUDCD3 (UniProt Q8IVD9)
  dose-dependent thermal stabilisation call: inactive: 0
PATL1 (UniProt Q86TB9)
  dose-dependent thermal stabilisation call: active: 1
